Results on five molecules are retold here after paper PMC7652414.

Protein sequences, listed by entry. Tags and fused reporters are not part of them.
UniProt Q9Y496: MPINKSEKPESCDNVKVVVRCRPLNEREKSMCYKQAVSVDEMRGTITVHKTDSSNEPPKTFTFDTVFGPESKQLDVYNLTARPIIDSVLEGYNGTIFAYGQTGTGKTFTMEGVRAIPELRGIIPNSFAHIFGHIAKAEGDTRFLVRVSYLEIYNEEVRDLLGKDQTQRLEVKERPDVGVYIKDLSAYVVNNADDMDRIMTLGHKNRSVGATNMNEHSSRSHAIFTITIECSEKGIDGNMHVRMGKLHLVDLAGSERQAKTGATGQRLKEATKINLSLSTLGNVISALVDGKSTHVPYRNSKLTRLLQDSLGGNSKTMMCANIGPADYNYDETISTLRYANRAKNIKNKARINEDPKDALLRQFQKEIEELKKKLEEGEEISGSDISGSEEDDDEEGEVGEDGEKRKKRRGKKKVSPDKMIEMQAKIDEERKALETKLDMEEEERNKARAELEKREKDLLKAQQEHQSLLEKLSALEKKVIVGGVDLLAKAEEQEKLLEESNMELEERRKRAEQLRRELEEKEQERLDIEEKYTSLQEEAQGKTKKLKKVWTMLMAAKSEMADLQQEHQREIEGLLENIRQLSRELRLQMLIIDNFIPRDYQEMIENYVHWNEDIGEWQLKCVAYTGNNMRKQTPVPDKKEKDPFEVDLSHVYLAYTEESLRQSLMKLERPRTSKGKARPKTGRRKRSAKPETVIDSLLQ

The target of test [1] is T1, FLA10 (FLA10-GFP and FLA10-MBP co-expressed in HEK293T) (Chlamydomonas reinhardtii) (UniProt P46869).
T1 sequence: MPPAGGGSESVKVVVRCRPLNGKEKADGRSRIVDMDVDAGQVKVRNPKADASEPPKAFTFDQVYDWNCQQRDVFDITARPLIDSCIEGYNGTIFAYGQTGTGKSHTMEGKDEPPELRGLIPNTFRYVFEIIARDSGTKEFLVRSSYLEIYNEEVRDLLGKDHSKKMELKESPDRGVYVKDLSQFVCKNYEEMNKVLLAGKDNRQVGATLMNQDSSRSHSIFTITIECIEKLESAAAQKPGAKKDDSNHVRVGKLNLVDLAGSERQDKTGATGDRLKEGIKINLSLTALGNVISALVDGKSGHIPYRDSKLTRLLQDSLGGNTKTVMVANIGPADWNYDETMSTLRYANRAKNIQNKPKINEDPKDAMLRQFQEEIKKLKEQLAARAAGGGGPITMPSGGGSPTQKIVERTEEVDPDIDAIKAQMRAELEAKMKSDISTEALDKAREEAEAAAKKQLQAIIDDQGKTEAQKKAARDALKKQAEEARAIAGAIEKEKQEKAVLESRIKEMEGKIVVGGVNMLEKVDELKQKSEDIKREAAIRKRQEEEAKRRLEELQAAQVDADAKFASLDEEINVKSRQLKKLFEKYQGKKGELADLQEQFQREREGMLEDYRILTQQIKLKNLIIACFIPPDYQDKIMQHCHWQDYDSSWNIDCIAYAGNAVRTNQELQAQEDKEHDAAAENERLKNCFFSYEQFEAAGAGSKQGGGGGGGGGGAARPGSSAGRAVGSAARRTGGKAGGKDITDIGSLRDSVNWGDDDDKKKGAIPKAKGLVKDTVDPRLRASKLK
Description: co-IP; as a1, HEK293T co-expressing the GFP- and MBP-tagged copies alone or including the other motor subunit and KAP; anti-GFP immunoprecipitation, immunoblot. (In general: A western blot detects proteins with antibodies after separation by electrophoresis.)

Test [2] addresses T1, FLA10 (FLA10-GFP and FLA10-MBP co-expressed in HEK293T) (Chlamydomonas reinhardtii). Put plainly: co-IP; GFP- and MBP-tagged copies co-expressed in HEK293T (48 hr; also with 7.5-fold less plasmid DNA); lysis buffer PBS pH 7.4, 150 mM KCl, 1 mM MgCl2, 1 mM EGTA, 0.1 mM ATP, 0.5% NP-40; anti-GFP beads, 4°C, 2 hr; immunoblot with GFP and MBP antibodies.
Test [3] has as its target T2, FLA8 (FLA8-GFP and FLA8-MBP co-expressed in HEK293T) (Chlamydomonas reinhardtii) (UniProt A7LGV1).
T2 sequence: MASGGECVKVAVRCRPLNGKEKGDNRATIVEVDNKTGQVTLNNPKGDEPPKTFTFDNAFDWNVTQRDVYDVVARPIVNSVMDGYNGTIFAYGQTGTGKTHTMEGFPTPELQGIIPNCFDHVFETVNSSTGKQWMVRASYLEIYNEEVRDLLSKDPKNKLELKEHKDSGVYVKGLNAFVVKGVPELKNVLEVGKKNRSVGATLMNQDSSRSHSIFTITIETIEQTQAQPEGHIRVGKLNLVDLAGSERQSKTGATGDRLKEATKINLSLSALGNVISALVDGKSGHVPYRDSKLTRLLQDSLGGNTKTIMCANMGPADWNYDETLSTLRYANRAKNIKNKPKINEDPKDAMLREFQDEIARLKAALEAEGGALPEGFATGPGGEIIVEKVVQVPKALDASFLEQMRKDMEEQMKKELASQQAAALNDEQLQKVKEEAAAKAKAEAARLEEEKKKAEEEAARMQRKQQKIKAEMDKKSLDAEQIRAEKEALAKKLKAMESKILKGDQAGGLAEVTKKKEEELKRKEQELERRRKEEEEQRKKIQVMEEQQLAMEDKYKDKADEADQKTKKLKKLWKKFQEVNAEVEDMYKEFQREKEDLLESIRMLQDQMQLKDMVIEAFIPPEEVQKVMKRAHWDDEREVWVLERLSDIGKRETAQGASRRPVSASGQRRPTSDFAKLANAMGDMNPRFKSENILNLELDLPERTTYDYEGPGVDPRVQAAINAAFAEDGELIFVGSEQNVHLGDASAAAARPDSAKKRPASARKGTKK
Description: co-IP; as a1, HEK293T co-expressing the GFP- and MBP-tagged copies alone or including the other motor subunit and KAP; anti-GFP immunoprecipitation, immunoblot.

The target in test [4] is T2, FLA8 (FLA8-GFP and FLA8-MBP co-expressed in HEK293T) (Chlamydomonas reinhardtii). Put plainly: co-IP; GFP- and MBP-tagged copies co-expressed in HEK293T (48 hr; also with 7.5-fold less plasmid DNA); lysis buffer PBS pH 7.4, 150 mM KCl, 1 mM MgCl2, 1 mM EGTA, 0.1 mM ATP, 0.5% NP-40; anti-GFP beads, 4°C, 2 hr; immunoblot with GFP and MBP antibodies.
The next test has as its target KIF3A-MBP (human) (UniProt Q9Y496). Description: pull-down; HsKinesin-II subunits co-expressed in Sf9, co-purified using Ni column and MBP column successively; SDS-PAGE with Coomassie staining or immunoblotting with antibodies against KIF3A, KIF3B or KAP3.

No constants are given. Whether binding was seen depends on the method and setting. In cells and extracts the contact can be indirect. Some results given as binding are weak or reduced against the parent protein; the word gives no strength. For some of these results: Tags and fused reporters may be left off the sequences shown.

B1: FLA10 (FLA10-GFP and FLA10-MBP co-expressed in HEK293T) (protein, UniProt P46869 1-786)
chain: T1 sequence
For the molecule B1, the binding result in test [1] and in test [2] was “binds” in each case.

B2: FLA10 (pCMV-FLA10, expressed in HEK293T) (protein, UniProt P46869 1-786)
chain: T1 sequence
In the case of B2, the binding result in test [3] is on record as “binds”.

B3: FLA8 (FLA8-GFP and FLA8-MBP co-expressed in HEK293T) (protein, UniProt A7LGV1 1-768)
chain: T2 sequence
Take B3: the binding result in test [3] and in test [4] was “binds” in each case.

B4: FLA8 (pCMV-FLA8, expressed in HEK293T) (protein, UniProt A7LGV1 1-768)
chain: T2 sequence
B4: in test [1], the binding entry is reported as “binds”.

B5: KIF3B-RFP (protein, UniProt O15066 1-747)
chain: MSKLKSSESVRVVVRCRPMNGKEKAASYDKVVDVDVKLGQVSVKNPKGTAHEMPKTFTFDAVYDWNAKQFELYDETFRPLVDSVLQGFNGTIFAYGQTGTGKTYTMEGIRGDPEKRGVIPNSFDHIFTHISRSQNQQYLVRASYLEIYQEEIRDLLSKDQTKRLELKERPDTGVYVKDLSSFVTKSVKEIEHVMNVGNQNRSVGATNMNEHSSRSHAIFVITIECSEVGLDGENHIRVGKLNLVDLAGSERQAKTGAQGERLKEATKINLSLSALGNVISALVDGKSTHIPYRDSKLTRLLQDSLGGNAKTVMVANVGPASYNVEETLTTLRYANRAKNIKNKPRVNEDPKDALLREFQEEIARLKAQLEKRSIGRRKRREKRREGGGSGGGGEEEEEEGEEGEEEGDDKDDYWREQQEKLEIEKRAIVEDHSLVAEEKMRLLKEKEKKMEDLRREKDAAEMLGAKIKAMESKLLVGGKNIVDHTNEQQKILEQKRQEIAEQKRREREIQQQMESRDEETLELKETYSSLQQEVDIKTKKLKKLFSKLQAVKAEIHDLQEEHIKERQELEQTQNELTRELKLKHLIIENFIPLEEKSKIMNRAFFDEEEDHWKLHPITRLENQQMMKRPVSAVGYKRPLSQHARMSMMIRPEARYRAENIVLLELDMPSRTTRDYEGPAIAPKVQAALDAALQDEDEIQVDASSFESTANKKSKARPKSGRKSGSSSSSSGTPASQLYPQSRGLVPK
On to B5, for which the binding result with KIF3A-MBP (human) is “binds”.
